Experimental data published in PubChem BioAssay AID1487 (National Center for Advancing Translational Sciences (NCATS), 2009).
The list shows a part of the results. Shown are side measurements of this screen, not its main read-out; they come without a call. Compounds called inactive in the main read-out are mostly missing here. Words in brackets tell the shape of the fitted curve; partial curves, single points and poor fits give uncertain potencies.

Assay: qHTS Assay for Modulators of Lamin A Splicing
Conditions: HeLa LMNA splicing GFP/RFP minigene ratio, 48 h
How it was run: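 Read-out is the ratio of GFP to DsRed2 object intensity, acquired by 488 nm laser-scanning cytometry on HeLa lamin A-EGFP minigene reporter cells. Compound incubation 48 hrs at 37 °C in Opti-MEM with 2% FBS; DMSO 0.5% final.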

[1] = measured here: GFP splicing reporter channel
[2] = measured here: RFP viability control channel

Structure (SMILES)	AC50 [1]	AC50 [2]
CC(OC(=O)c1cc2sccc2n1C)C(=O)NCc1ccc2c(c1)OCO2 (stereo not given)	0.1 µM [rising, full curve, poor fit]	0.708 µM [rising, full curve, poor fit]
CCCn1c2ccccc2c2cnn(CC(=O)N(C)c3ccccc3CC)c(=O)c21	0.0631 µM [falling, full curve]	0.1 µM [falling, full curve]
O=C(NCCC1=CCCCC1)c1ccc2c(c1)N(Cc1ccccc1)C(=O)CS2	20 µM [rising, single point]	31.6 µM [rising, single point]
COc1ccc(CC(=O)n2nc(-c3ccc(Cl)cc3)nc2NCc2ccco2)cc1	14.1 µM [falling, single point]	31.6 µM [falling, single point]
COc1ccc(CCN(Cc2nc3ccccc3c(=O)[nH]2)C(=O)C2CC2)cc1	0.00316 µM [falling, full curve, poor fit]	0.00355 µM [falling, full curve, poor fit]
O=C(NCc1ccccn1)C1CC(c2ccc(Cl)c(Cl)c2)=NO1 (stereo not given)	35.5 µM [falling, single point]	35.5 µM [falling, single point]
CCSc1nc2ccccc2n1Cc1ccccc1F	12.6 µM [rising, single point]	25.1 µM [rising, single point]
C[C@@H]1C[C@H]2[C@@H]3C[C@H](F)C4=CC(=O)C=C[C@@]4(C)[C@]3(F)[C@H](O)C[C@]2(C)[C@@]1(O)C(=O)CO	0.00794 µM [rising, full curve]	14.1 µM [falling, single point]
Cc1cc(OCc2nc(-c3ccncc3)no2)cc(C)c1Cl	3.98 µM [falling, full curve, poor fit]	3.98 µM [falling, full curve]
O=C1CCC(=O)N1OCCOc1ccccc1	0.316 µM [rising, full curve, poor fit]	–
Cc1cc(C)nc(Sc2ncnc(N)c2[N+](=O)[O-])n1	14.1 µM [falling, partial curve, poor fit]	35.5 µM [falling, single point]
O=S(=O)(c1ccccc1)c1nc(-c2ccc(Cl)cc2Cl)oc1N1CCCCC1	12.6 µM [rising, single point]	14.1 µM [rising, partial curve]
COc1ccc(C(C)(C)C)cc1NC(=O)COC(=O)C(C)C	1.26 µM [falling, full curve, poor fit]	–
COc1ccc2c(c1)CCC1=C2NC(=S)NC1c1ccc(N(C)C)cc1 (stereo not given)	35.5 µM [rising, single point]	31.6 µM [rising, single point]
Oc1[nH]c2ccccc2c1N=NC(=S)NCCc1ccccc1	–	20 µM [rising, partial curve]
COc1ccc(CCNC(=O)C2CCN(Cc3nc(-c4ccccc4F)oc3C)CC2)cc1OC	17.8 µM [rising, single point]	31.6 µM [rising, single point]
Cc1cc(=O)n2cccc(O)c2n1	10 µM [falling, partial curve, poor fit]	6.31 µM [falling, full curve, poor fit]
CCCCN(CCCNc1ncnc2nc[nH]c12)c1ccccc1	12.6 µM [rising, single point]	35.5 µM [rising, single point]
COC(=O)C1=C(N)Oc2cc(N(C)C)ccc2C1c1ccccc1OC (stereo not given)	–	35.5 µM [falling, single point]
COC(=O)c1cc2c(ccn2-c2ccc(F)cc2)n1Cc1ccc(OC)cc1	–	22.4 µM [rising, single point]
O=C(NCCCN1CCOCC1)C(=O)N/N=C/c1c2ccccc2cc2ccccc12	11.2 µM [rising, partial curve]	12.6 µM [rising, partial curve]
COc1ccc(S(=O)(=O)NCCSc2ccc(Cl)cc2)cc1OC	–	14.1 µM [rising, partial curve]
O=C(Nn1cc(C(=O)N2CCN(c3ccccc3F)CC2)c2ccccc2c1=O)c1cnccn1	11.2 µM [falling, single point]	–
COc1ccc(C(=O)Oc2c(CN3CCOCC3)cc(Cl)c3cccnc23)cc1	–	15.8 µM [rising, single point]
COc1ccccc1C(=O)Nc1nnc(SCc2cc(=O)c3cc(Cl)ccc3[nH]2)s1	10 µM [falling, partial curve]	10 µM [falling, partial curve, poor fit]
CC(=O)c1ccc(N2CCN(C(=O)CCCc3nc4ccccc4s3)CC2)cc1	–	25.1 µM [rising, single point]

Structure (SMILES)	AC50 [1]	AC50 [2]
CC1(C)N=C(SCC(=O)Nc2ccccc2)C(c2ccc(Cl)cc2)=N1	–	11.2 µM [rising, partial curve]
COc1cccc(S(=O)(=O)Nc2ccc(C(=O)Nc3ccncc3)cc2)c1	15.8 µM [rising, single point]	22.4 µM [rising, single point]
COc1ccc(C(=S)N2CCCCC2)cc1Br	0.00501 µM [falling, full curve]	0.00447 µM [falling, full curve, poor fit]
COc1cc(OC)cc(C(=O)NCC(=O)OCC(=O)N2CC(C)CC(C)C2)c1 (stereo not given)	0.00316 µM [falling, full curve, poor fit]	–
CCc1cccc2c(C(=O)CCl)c[nH]c12	–	35.5 µM [rising, single point]
CC(C)N(CC(N)=O)C(=O)c1sc2cc(F)ccc2c1Cl	6.31 µM [rising, single point]	–
CC(C)COC(=O)NCCCOC(=O)Nc1ccccc1	–	20 µM [rising, single point]
CN1CCN(C2=Cc3cc(Cl)ccc3Sc3cc(F)ccc32)CC1	22.4 µM [falling, partial curve]	20 µM [falling, partial curve]
CC1CC(C)CN(C(=O)c2ccc3c(=O)n(Cc4ccc5c(c4)OCO5)c(=S)[nH]c3c2)C1 (stereo not given)	6.31 µM [rising, full curve, poor fit]	7.08 µM [rising, full curve]
CCOC(=O)Cn1c(=O)n(CC2CCCO2)c2nc(-c3cccc(C)c3)nc(C(N)=O)c21 (stereo not given)	5.62 µM [falling, single point]	4.47 µM [falling, single point]
COc1ccc(N2CCN(C(CNC(=O)c3cccc(Cl)c3)c3cccnc3)CC2)cc1 (stereo not given)	10 µM [rising, partial curve]	12.6 µM [rising, partial curve]
O=C(O)c1ccc2cccnc2n1	0.126 µM [falling, full curve, poor fit]	6.31 µM [falling, single point]
O=c1cc(N2CCCCC2)c(-c2ccccc2)nn1Cc1cccc(Cl)c1	25.1 µM [falling, partial curve]	20 µM [falling, partial curve]
C#C[C@@]1(O)CC[C@@H]2[C@@H]3CCC4=CC(=O)CC[C@@H]4[C@H]3CC[C@]21C	3.55 µM [falling, single point]	10 µM [falling, partial curve]
Cc1ccc(OCC(=O)c2cc(C)n(-c3ccccc3)c2C)c([N+](=O)[O-])n1	–	11.2 µM [rising, partial curve, poor fit]
CCN(Cc1ccccc1)C(=O)Cn1cc(S(=O)(=O)Cc2cccc(Cl)c2)c2ccccc21	0.0708 µM [falling, partial curve]	0.112 µM [falling, partial curve]
COc1cc(Cl)c(S(=O)(=O)N2CC(C)OC(C)C2)cc1Cl (stereo not given)	5.62 µM [rising, single point]	–
CCC(C)NC(=O)CSc1c2c(nc3ccccc13)CCCC2 (stereo not given)	–	31.6 µM [falling, single point]
Cc1nn(-c2ccc(Cl)cc2)c2[nH]c(=O)c(CNCc3ccc4c(c3)OCO4)cc12	–	2.51 µM [rising, full curve, poor fit]
CC1CCN(C(=O)CSc2c(C(C)C)cnc3c2c(=O)n(C)c(=O)n3C)CC1	0.316 µM [rising, partial curve, poor fit]	–
CC1=[N+]([O-])C(C)(C)C(c2ccc(Br)cc2)=[N+]1[O-]	31.6 µM [rising, single point]	–
Cc1nc(Cc2ccc(OC(C)C)cc2)[nH]c(=O)c1CC(=O)O	0.501 µM [falling, full curve, poor fit]	7.94 µM [falling, partial curve, poor fit]
O=C(c1cccs1)N1CCCN(c2ncnc3scc(-c4ccccc4)c23)CC1	–	22.4 µM [falling, single point]
O=C(Cn1cc(S(=O)(=O)N2CCCC2)c(S(=O)(=O)N2CCCC2)c1)Nc1cccc(F)c1	5.01 µM [falling, partial curve]	–
CC1C/C(=C/c2ccco2)C(=O)/C(=C/c2ccco2)C1 (stereo not given)	5.62 µM [falling, single point]	5.62 µM [falling, single point]

14 of the compounds above, bar-delimited.
Structure (SMILES) | AC50 [1] | AC50 [2]
COc1ccc(CC(=O)n2nc(-c3ccc(Cl)cc3)nc2NCc2ccco2)cc1 | 14.1 µM [falling, single point] | 31.6 µM [falling, single point]
C[C@@H]1C[C@H]2[C@@H]3C[C@H](F)C4=CC(=O)C=C[C@@]4(C)[C@]3(F)[C@H](O)C[C@]2(C)[C@@]1(O)C(=O)CO | 0.00794 µM [rising, full curve] | 14.1 µM [falling, single point]
O=C1CCC(=O)N1OCCOc1ccccc1 | 0.316 µM [rising, full curve, poor fit] | –
COc1ccc2c(c1)CCC1=C2NC(=S)NC1c1ccc(N(C)C)cc1 (stereo not given) | 35.5 µM [rising, single point] | 31.6 µM [rising, single point]
COc1ccc(CCNC(=O)C2CCN(Cc3nc(-c4ccccc4F)oc3C)CC2)cc1OC | 17.8 µM [rising, single point] | 31.6 µM [rising, single point]
Cc1cc(=O)n2cccc(O)c2n1 | 10 µM [falling, partial curve, poor fit] | 6.31 µM [falling, full curve, poor fit]
COC(=O)c1cc2c(ccn2-c2ccc(F)cc2)n1Cc1ccc(OC)cc1 | – | 22.4 µM [rising, single point]
O=C(NCCCN1CCOCC1)C(=O)N/N=C/c1c2ccccc2cc2ccccc12 | 11.2 µM [rising, partial curve] | 12.6 µM [rising, partial curve]
CCc1cccc2c(C(=O)CCl)c[nH]c12 | – | 35.5 µM [rising, single point]
CC1CC(C)CN(C(=O)c2ccc3c(=O)n(Cc4ccc5c(c4)OCO5)c(=S)[nH]c3c2)C1 (stereo not given) | 6.31 µM [rising, full curve, poor fit] | 7.08 µM [rising, full curve]
C#C[C@@]1(O)CC[C@@H]2[C@@H]3CCC4=CC(=O)CC[C@@H]4[C@H]3CC[C@]21C | 3.55 µM [falling, single point] | 10 µM [falling, partial curve]
Cc1ccc(OCC(=O)c2cc(C)n(-c3ccccc3)c2C)c([N+](=O)[O-])n1 | – | 11.2 µM [rising, partial curve, poor fit]
CCC(C)NC(=O)CSc1c2c(nc3ccccc13)CCCC2 (stereo not given) | – | 31.6 µM [falling, single point]
Cc1nn(-c2ccc(Cl)cc2)c2[nH]c(=O)c(CNCc3ccc4c(c3)OCO4)cc12 | – | 2.51 µM [rising, full curve, poor fit]
